Data on 3 substances can be found in publication PMC4237246.

Protein sequences, listed by entry. Tags and fused reporters are not part of them. Lines headed by an entry give the natural chain unless they say otherwise; changes in a name come on top.
UniProt Q07820: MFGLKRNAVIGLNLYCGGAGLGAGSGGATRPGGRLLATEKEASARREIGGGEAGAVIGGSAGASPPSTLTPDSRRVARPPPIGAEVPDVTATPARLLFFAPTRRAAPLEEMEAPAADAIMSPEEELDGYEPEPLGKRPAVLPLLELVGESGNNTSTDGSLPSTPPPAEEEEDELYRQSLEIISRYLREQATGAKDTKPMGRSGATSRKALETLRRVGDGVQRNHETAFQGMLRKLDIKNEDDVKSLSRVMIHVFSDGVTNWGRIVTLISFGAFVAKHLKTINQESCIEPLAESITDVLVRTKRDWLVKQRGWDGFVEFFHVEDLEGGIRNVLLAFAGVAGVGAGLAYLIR
UniProt P21796: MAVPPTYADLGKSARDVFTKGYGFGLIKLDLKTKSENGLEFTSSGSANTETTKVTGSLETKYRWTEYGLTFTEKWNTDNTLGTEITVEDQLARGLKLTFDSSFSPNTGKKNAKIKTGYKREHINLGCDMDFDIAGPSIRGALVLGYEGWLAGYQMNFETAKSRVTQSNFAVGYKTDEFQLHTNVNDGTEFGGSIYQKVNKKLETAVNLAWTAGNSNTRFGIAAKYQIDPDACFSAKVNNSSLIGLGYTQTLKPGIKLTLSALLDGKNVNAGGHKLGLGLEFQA

The target in assay [1] is Recombinant His-tagged Mcl-1 (UniProt Q07820). Put plainly: pull-down; His-tagged Mcl-1 (2 ug) bound to ProBond nickel-chelating resin, incubated with GST-VDAC1, 2 or 3 fusion proteins; anti-GST western blot; BSA lanes as beads-alone control; both purified.
The target of assay [2] is GST-VDAC1 fusion protein (UniProt P21796). Nature of the assay: pull-down; GST-VDAC1 on Glutathione Sepharose 4B incubated with 0.2 ug recombinant purified Mcl-1 or Bcl-xL; western blot, band density of pulldown compared with input; both purified. For orientation: A western blot detects proteins with antibodies after separation by electrophoresis.

Results are given in words; binding and its absence hold for the method and conditions named. Binding can be weak; no strength is given.

For “GST-VDAC1 fusion protein (from UniProt P21796 1-283)”, the binding entry in assay [1] is listed as “binds”. As to “Recombinant His-tagged Mcl-1 (from UniProt Q07820)”, the binding result in assay [2] is “binds”.

In the case of “Recombinant purified Bcl-xL (from UniProt Q07817-1)”, in assay [2], the binding result is “binds”.
